This is an account of results in patent US20260137759A1.

These are yes or no findings as the source states them, for the method shown. In cells and extracts the contact can be indirect. Some results given as binding are weak or reduced against the parent protein; the word gives no strength. Where a sequence is shown, tags or fusion partners need not be part of it.

This assay addresses TGFβ Receptor II/TF/IL-15 fusion protein (human). Kind of assay: reduced SDS-PAGE (4-12% NuPage Bis-Tris gel, InstantBlue) of TGFRt15-TGFRs purified on the anti-TF antibody affinity column, before and after deglycosylation; co-purification of the two chains.

B1: TGFβ Receptor II/IL-15RαSu fusion protein (protein)
chain: IPPHVQKSVNNDMIVTDNNGAVKFPQLCKFCDVRFSTCDNQKSCMSNCSITSICEKPQEVCVAVWRKNDENITLETVCHDPKLPYHDFILEDAASPKCIMKEKKKPGETFFMCSCSSDECNDNIIFSEEYNTSNPDGGGGSGGGGSGGGGSIPPHVQKSVNNDMIVTDNNGAVKFPQLCKFCDVRFSTCDNQKSCMSNCSITSICEKPQEVCVAVWRKNDENITLETVCHDPKLPYHDFILEDAASPKCIMKEKKKPGETFFMCSCSSDECNDNIIFSEEYNTSNPDITCPPPMSVEHADIWVKSYSLYSRERYICNSGFKRKAGTSSLTECVLNKATNVAHWTTPSLKCIR
In the case of B1, the binding result was “binds”.
